# Source: patent publication US6365582B1, “S-substitute 11β-benzaldoxime-estra-4, 9-diene-carbonic acid thiolesters, method for the production thereof and pharmaceutical preparations containing these compounds” (Jenapharm GmbH & Co. KG, priority 1998, dated 2002)
# For at least one compound, name, drawing or mass did not settle the structure.
# Tested on: guinea pig in cycle
# Assay: Antiluteolysis test/ovulation inhibition test in the guinea pig in cycle
# Type: in vivo
# Experimental: Antiluteolysis test/ovulation inhibition test in the guinea pig in cycle: This test is based on the fact that progesterone at the end of the cycle stimulates uterine prostaglandin secretion. In the guinea pig, the inhibition of this function leads to a persistence of the corpora lutea (antiluteolysis). […] This test thus allows the therapy-relevant typing of progesterone antagonists as ? pure” or ? agonistic” substances. Guinea pigs are treated with the test substance on day 10 to day 17 of the cycle. The progesterone concentrations in the serum are determined on day 10 before substance treatment and on the following days until autopsy ([…]., Beier, […]., Crundel, M. et al. in Current Concepts in Fertility Regulation and Reproduction, (eds). Puri, C. P. and Van Look, P. F. H. (1994) 303-328).
smiles,measurement,value
C#C[C@]1(O)CC[C@H]2[C@@H]3CCC4=CC(=O)CC[C@@H]4[C@H]3CC[C@@]21CC [levonorgestrel],Prostaglandin / PGFM levels in the blood (in words),raised prostaglandin F metabolite levels
